{"sequences": {"note": "Sequences of proteins named here, by UniProt entry; tags and fusion partners are left off.", "UniProt Q0JBA9, entry or part of it": "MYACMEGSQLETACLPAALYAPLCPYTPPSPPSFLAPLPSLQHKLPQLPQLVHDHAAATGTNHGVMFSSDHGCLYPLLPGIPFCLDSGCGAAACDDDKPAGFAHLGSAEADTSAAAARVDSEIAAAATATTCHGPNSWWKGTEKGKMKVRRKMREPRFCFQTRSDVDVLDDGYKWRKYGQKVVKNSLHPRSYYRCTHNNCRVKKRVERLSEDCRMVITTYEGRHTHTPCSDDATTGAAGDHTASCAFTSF"}, "source": "paper PMC7819943", "about": "“Rice protein-binding microarrays: a tool to detect cis-acting elements near promoter regions in rice”", "note": "The list shows a part of the results.", "data": [{"biological_target": "OsWRKY34 (Oryza sativa, UniProt Q0JBA9 1-250)", "test": "protein-binding microarray (RPBM); PBS, 2% BSA, 51.3 ng/ul salmon testes DNA, 50 uM zinc acetate, 200 nM TF, 25 C, 1 h; high values mean tight binding", "conditions": "protein: recombinant; tags: N-terminal polyhistidine and DsRed monomer fusion (pET32a); label: CyDye5-dUTP incorporated in the synthesized complementary strand; 3' TTTTT single-stranded linker to array surface; dsDNA, one strand shown", "how_it_was_run": "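Binding signal is reported as fluorescence intensity per feature (arbitrary units) from an Axon 4000B scanner. Incubation used 200 nM of each Ni–NTA-purified, N-terminally polyhistidine- and DsRed-fused transcription factor from E. coli BL21-CodonPlus on a double-stranded custom Agilent array for 1 h at 25 °C, with 50 µM zinc acetate in the buffer, followed by washing.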", "values": [{"sequence": "CATCGACAATGTTGGTTACCGTCACCCACTTTCTTGCTGCCGGAGTCACCTAGTGCAG", "binding signal": "8820 fluorescence intensity (a.u.)"}, {"sequence": "CACGCATCCGTCTCCTCCTCGCGGAATAATAACCTTTTTTCGGAGTCACCTAGTGCAG", "binding signal": "8920 fluorescence intensity (a.u.)"}, {"sequence": "ATTTGCTATTTTAGATGTTGTTTTTAGATAGATGCTATTTCGGAGTCACCTAGTGCAG", "binding signal": "10000 fluorescence intensity (a.u.)"}, {"sequence": "TCTTCATGCAGCTAGACAAACCTTATTGCATCTTTCTGTTCGGAGTCACCTAGTGCAG", "binding signal": "10600 fluorescence intensity (a.u.)"}, {"sequence": "TTGGCCAACTCGCTTTTGTCTTCTTTGGTGGTTGCCCTCTCGGAGTCACCTAGTGCAG", "binding signal": "9730 fluorescence intensity (a.u.)"}, {"sequence": "TTTTGTGTTTTTTCCTGTGGTCCAATCAAACGCGTTTTTTCGGAGTCACCTAGTGCAG", "binding signal": "9400 fluorescence intensity (a.u.)"}, {"sequence": "TGCCTGCTAGCCCGCTTGTGTTAACTGTCCTTTCTGTATCCGGAGTCACCTAGTGCAG", "binding signal": "8420 fluorescence intensity (a.u.)"}, {"sequence": "ATCCTGGAGGCCCTCGTCGGGGTGGGAGGCGACCGTGGGACGGAGTCACCTAGTGCAG", "binding signal": "12600 fluorescence intensity (a.u.)"}, {"sequence": "AATTCGTATCCCATTTTCTCTCCTCTCTTCTCTCATGTTCCGGAGTCACCTAGTGCAG", "binding signal": "8280 fluorescence intensity (a.u.)"}, {"sequence": "CCCCGGGCGCGCCGCCGCCGTCCCCGTCCCTGGCCGCGCCCGGAGTCACCTAGTGCAG", "binding signal": "8930 fluorescence intensity (a.u.)"}, {"sequence": "CACTCCTCAGCTCGCTTCTTCGTCAATCCGCCTTGCATTTCGGAGTCACCTAGTGCAG", "binding signal": "13800 fluorescence intensity (a.u.)"}, {"sequence": "CACTACTGTCTATGTCTCAATTCATACTATTATATTCTATCGGAGTCACCTAGTGCAG", "binding signal": "9070 fluorescence intensity (a.u.)"}, {"sequence": "TGTCCATTCTTCTTGTTGTTGTTCTTGCTCGGGTGGTTAGCGGAGTCACCTAGTGCAG", "binding signal": "8280 fluorescence intensity (a.u.)"}, {"sequence": "CCCTTGCCACCACACTAGCAAAATGCATCTCTCAACAACACGGAGTCACCTAGTGCAG", "binding signal": "9100 fluorescence intensity (a.u.)"}, {"sequence": "AAGCATATGCTCGATCGCCGATCGGTCTTTTATCTTTTCTCGGAGTCACCTAGTGCAG", "binding signal": "8970 fluorescence intensity (a.u.)"}, {"sequence": "AGAAGTCGAGAGGGTTTTCGTGGTGGTGGTGGTGGTAGGGCGGAGTCACCTAGTGCAG", "binding signal": "10600 fluorescence intensity (a.u.)"}, {"sequence": "TGTATTTCTATATGGACTCTGCCTTTTATTTTTCTCCGATCGGAGTCACCTAGTGCAG", "binding signal": "8150 fluorescence intensity (a.u.)"}, {"sequence": "CACGTTCACTTCTACCTACTTTCTTAATAACCGTGTCCAACGGAGTCACCTAGTGCAG", "binding signal": "9330 fluorescence intensity (a.u.)"}, {"sequence": "TCACATCCATGGGCCCACTTGTCATCCTCACGCTCTATGACGGAGTCACCTAGTGCAG", "binding signal": "9410 fluorescence intensity (a.u.)"}, {"sequence": "GGTCGGGGTGATACTATCTCTTTTGTCATTGTGGGTGGTCCGGAGTCACCTAGTGCAG", "binding signal": "13500 fluorescence intensity (a.u.)"}, {"sequence": "GCCAACAGTTGTCGGGACTGTCACTCCACCCGTCACGCTCCGGAGTCACCTAGTGCAG", "binding signal": "9550 fluorescence intensity (a.u.)"}, {"sequence": "AACTCAGCGAAGGCCTGGAACATCTCTCTCGCTGGAATATCGGAGTCACCTAGTGCAG", "binding signal": "8370 fluorescence intensity (a.u.)"}, {"sequence": "TAGGTCCATAACTCCCAAACCCCTAGCATCAACATTTCACCGGAGTCACCTAGTGCAG", "binding signal": "8410 fluorescence intensity (a.u.)"}, {"sequence": "ACATAAATTTTGAACTGGCTACACCCTACCAGTTCATTACCGGAGTCACCTAGTGCAG", "binding signal": "9470 fluorescence intensity (a.u.)"}, {"sequence": "TTGAGTGATTTTTTTTCAACATTTGTCTTATGTATATGCTCGGAGTCACCTAGTGCAG", "binding signal": "8470 fluorescence intensity (a.u.)"}, {"sequence": "CTCGTGCGCTACCCCTTTTTATTATTGCCGAAATCATGTTCGGAGTCACCTAGTGCAG", "binding signal": "9780 fluorescence intensity (a.u.)"}, {"sequence": "GACTAGGGAATTTGGAGATGCATTGAGACGTCTATTTTTCCGGAGTCACCTAGTGCAG", "binding signal": "9060 fluorescence intensity (a.u.)"}, {"sequence": "CTCTTGGAAAATTTTCTTTGAGTCTATCTCTCTCATCCGACGGAGTCACCTAGTGCAG", "binding signal": "8980 fluorescence intensity (a.u.)"}, {"sequence": "ATGTACTAGTCATTGTTACTTAATGTTCATATAGTTTTATCGGAGTCACCTAGTGCAG", "binding signal": "8910 fluorescence intensity (a.u.)"}, {"sequence": "GATGTGACTGTGGTGTTGCGTATGTAGTGATGTATGTCTGCGGAGTCACCTAGTGCAG", "binding signal": "9270 fluorescence intensity (a.u.)"}, {"sequence": "AATCGTATTCAGAATTGGTTTTCTTTTATCTGCTCTTTTCCGGAGTCACCTAGTGCAG", "binding signal": "10600 fluorescence intensity (a.u.)"}, {"sequence": "CAGTGGATTCTCGGAAGATCCTCCCATCTCACTCTTGCCCCGGAGTCACCTAGTGCAG", "binding signal": "8590 fluorescence intensity (a.u.)"}, {"sequence": "TGGTCTTCATCCTACGTGGCGTTTATGTGGCACTACAATTCGGAGTCACCTAGTGCAG", "binding signal": "8200 fluorescence intensity (a.u.)"}, {"sequence": "GGACCTTCGGTGTACTTTTTCCTATTCCTTGTCACCACTGCGGAGTCACCTAGTGCAG", "binding signal": "8260 fluorescence intensity (a.u.)"}, {"sequence": "TATCATCTTTGCCTCGCGCCACGCTCACTTCACTTGCAGCCGGAGTCACCTAGTGCAG", "binding signal": "13700 fluorescence intensity (a.u.)"}, {"sequence": "ATTACATCTATCATAAATTTTTTACTATACTTGTCATTTCCGGAGTCACCTAGTGCAG", "binding signal": "10500 fluorescence intensity (a.u.)"}, {"sequence": "AATAAACAAAGTCTGCTCTTCACTTTCCGGGCTTGAAATTCGGAGTCACCTAGTGCAG", "binding signal": "8140 fluorescence intensity (a.u.)"}, {"sequence": "CTACCAACTCCGTGAGTTATTTGTAACATTGCTTCTTTTCCGGAGTCACCTAGTGCAG", "binding signal": "9060 fluorescence intensity (a.u.)"}, {"sequence": "CCTCGCGCCACCCGCGCCGATCCGTTCGCCTCCGCCGCCGCGGAGTCACCTAGTGCAG", "binding signal": "8530 fluorescence intensity (a.u.)"}, {"sequence": "GCCCGCACCACCGCACGTGCACCCCTCAAACTCGCCATCGCGGAGTCACCTAGTGCAG", "binding signal": "9740 fluorescence intensity (a.u.)"}, {"sequence": "GATATGTGTGGGTGGGTTCCTGGATCCGGCGCAGAGGTGTCGGAGTCACCTAGTGCAG", "binding signal": "11200 fluorescence intensity (a.u.)"}, {"sequence": "CCACCACCCCGGCCATTCCATTCCATTCCATTTCTTTTCTCGGAGTCACCTAGTGCAG", "binding signal": "15300 fluorescence intensity (a.u.)"}]}]}
